Measurements published in patent US9532968B1, “Fumarate compounds, pharmaceutical compositions thereof, and methods of use” (priority 2015, dated 2017).
Some entries share one result that the patent states for a list of compounds.

Key:
[1] = Stability of fumarate compounds in PBS buffer; assay type: physicochemical; settings: PBS 50 mM, pH 7.0 to 7.4, 20 to 37 °C, 60 min, HPLC
porcine liver esterase = assay: Hydrolysis of fumarate compounds in vitro by porcine liver esterase; assay type: in vitro ADME; settings: porcine liver esterase in PBS pH 7.0 to 8.0, 20 to 37 °C, ca. 24 h, HPLC

Compound	stable in PBS buffer [1]	converted to MHF, monoester fumarates, and/or fumaric acid (porcine liver esterase)
COC(=O)/C=C/C(=O)OCC(=O)C(=O)N(C)C [(1), O4-[3-(Dimethylamino)-2,3-dioxo-propyl] O1-methyl (E)-but-2-enedioate]	> 90%	> 15%
CCN(CC)C(=O)C(=O)COC(=O)/C=C/C(=O)OC [Compound (2), O4-[3-(Diethylamino)-2,3-dioxo-propyl] O1-methyl (E)-but-2-enedioate]	> 90%	> 15%
COC(=O)/C=C/C(=O)OCC(=O)C(=O)N1CCOCC1 [Compound (3), O1-Methyl O4-(3-morpholino-2,3-dioxo-propyl) (E)-but-2-enedioate]	> 90%	> 15%
